Data reported in publication PMC9694926, “Novel Uracil-Based Inhibitors of Acetylcholinesterase with Potency for Treating Memory Impairment in an Animal Model of Alzheimer’s Disease” (Molecules, 2022).
Counter-ions that a name gives are not always drawn.

Tested on: Aβ plaques in APP/PS1 mice entorhinal cortex
Assay: Aβ plaques quantification by thioflavin S staining
Format: in vivo
Conditions: 1 mg/kg p.o., 18 days

SMILES: COc1cc2c(cc1OC)C(=O)C(CC1CCN(Cc3ccccc3)CC1)C2 (centres unmarked) [Donepezil, donepezil hydrochloride]
- effect on mean Aβ plaque number: did not significantly reduce
- effect on mean area of plaques: did not significantly reduce
